Experimental data: article PMC10444971
No constants are given. Whether binding was seen depends on the method and setting. Binding seen in cells or lysates may run through a third protein. Some entries that bind do so weakly or less than the wild type. For part of these data: Where a sequence is shown, tags or fusion partners need not be part of it.

Protein sequences, listed by entry. Tags and fused reporters are not part of them. Lines headed by an entry give the natural chain unless they say otherwise; changes in a name come on top.
UniProt Q7TQI3: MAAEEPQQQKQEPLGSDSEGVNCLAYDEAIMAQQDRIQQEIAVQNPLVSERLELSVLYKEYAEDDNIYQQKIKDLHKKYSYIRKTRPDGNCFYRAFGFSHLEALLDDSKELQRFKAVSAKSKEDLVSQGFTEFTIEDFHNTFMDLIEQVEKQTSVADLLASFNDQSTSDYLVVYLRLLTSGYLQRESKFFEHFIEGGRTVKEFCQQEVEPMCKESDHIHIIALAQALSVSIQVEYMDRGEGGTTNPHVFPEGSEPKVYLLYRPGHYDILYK

B1: CCN6 (WNT-inducible signalling pathway protein 3), endogenous in 4T1 cells (protein, UniProt D3Z5L9 24-354)
chain: SAPQDSTPGGRPGAALEVYQRTEVCRWPCRCPPQRPTCPPGVSLVRDGCGCCKVCAKQPGDTCNEAEICDPHKGLYCDYSGDTPRYETGVCAYLVAVGCEFNRVYYQNGQVFQPHPLFSCLCVSGAIGCTPLFIPKLAGSNCSAAKGRRKTDPPNCGRGTLQQQNSASYKTMSAYRNLPLTWRKKCLVQATKWTPCSRTCGMGISNRVTNDNANCEMRKERRLCYIQPCSRNTSQAVKIPRGETCQPTFQLPKAEKFVFSGCSSTQSYRPTFCGICLDKRCCVPNKSKMITVRFDCPSEGSFKWQMLWVTSCVCQRDCREPGDIFSELRIL

Tests used:
[1] = target: T1, CCN6-FLAG (UniProt D3Z5L9); experiment: co-IP; 4T1 cells co-transfected with CCN6-FLAG and GFP, OTUB1-GFP or OTUB1 mutant plasmids, 24 h; RIPA whole-cell lysate; anti-FLAG antibody, Sepharose beads, 4°C; Western blot for FLAG and GFP
T1 sequence: B1 chain

[2] = target: purified His-OTUB1 protein (UniProt Q7TQI3); experiment: pull-down; in vitro interaction assay: purified His-OTUB1 incubated with 4T1 cell lysates at 4°C overnight, harvested with anti-His antibody and Sepharose beads; Western blot for OTUB1 and CCN6; only the target purified
[3] = target: OTU domain, ubiquitin aldehyde binding 1 (OTUB1), endogenous in 4T1 cells (mouse (endogenous in 4T1)) (UniProt Q7TQI3); experiment: co-IP; endogenous proteins; 4T1 cells treated with MG132 (10 μM) for 6 h before lysis; RIPA whole-cell lysate, precleared; anti-OTUB1 antibody (rabbit IgG as control), Sepharose beads, 4°C overnight; Western blot

Molecule	binding [1]	binding [2]	binding [3]
truncated OTUB1 lacking the UBA domain (∆N OTUB1), GFP-tagged (from UniProt Q7TQI3 48-271) (domain or fragment)	binds		
B1		binds	binds
